Assay results published in article PMC5520749.
These are yes or no findings as the source states them, for the method shown. Binding seen in cells or lysates may run through a third protein. Some entries that bind do so weakly or less than the wild type.

By UniProt entry, the sequences of proteins in these tests, tags left out.
UniProt O96013: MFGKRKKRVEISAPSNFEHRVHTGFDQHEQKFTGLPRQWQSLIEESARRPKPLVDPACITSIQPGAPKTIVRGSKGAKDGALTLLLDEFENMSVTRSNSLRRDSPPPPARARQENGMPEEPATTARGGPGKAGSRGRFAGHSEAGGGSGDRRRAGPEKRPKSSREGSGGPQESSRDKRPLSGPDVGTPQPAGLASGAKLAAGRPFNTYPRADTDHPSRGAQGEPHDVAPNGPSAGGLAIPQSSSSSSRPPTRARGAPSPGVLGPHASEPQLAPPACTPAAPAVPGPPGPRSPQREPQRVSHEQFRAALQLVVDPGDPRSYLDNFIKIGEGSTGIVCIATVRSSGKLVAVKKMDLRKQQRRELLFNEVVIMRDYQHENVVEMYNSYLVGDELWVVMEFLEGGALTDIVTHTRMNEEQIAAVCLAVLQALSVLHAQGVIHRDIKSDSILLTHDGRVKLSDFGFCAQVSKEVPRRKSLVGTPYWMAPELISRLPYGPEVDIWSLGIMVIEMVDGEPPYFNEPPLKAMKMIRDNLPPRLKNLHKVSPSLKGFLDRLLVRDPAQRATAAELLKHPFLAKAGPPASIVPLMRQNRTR
UniProt P11413: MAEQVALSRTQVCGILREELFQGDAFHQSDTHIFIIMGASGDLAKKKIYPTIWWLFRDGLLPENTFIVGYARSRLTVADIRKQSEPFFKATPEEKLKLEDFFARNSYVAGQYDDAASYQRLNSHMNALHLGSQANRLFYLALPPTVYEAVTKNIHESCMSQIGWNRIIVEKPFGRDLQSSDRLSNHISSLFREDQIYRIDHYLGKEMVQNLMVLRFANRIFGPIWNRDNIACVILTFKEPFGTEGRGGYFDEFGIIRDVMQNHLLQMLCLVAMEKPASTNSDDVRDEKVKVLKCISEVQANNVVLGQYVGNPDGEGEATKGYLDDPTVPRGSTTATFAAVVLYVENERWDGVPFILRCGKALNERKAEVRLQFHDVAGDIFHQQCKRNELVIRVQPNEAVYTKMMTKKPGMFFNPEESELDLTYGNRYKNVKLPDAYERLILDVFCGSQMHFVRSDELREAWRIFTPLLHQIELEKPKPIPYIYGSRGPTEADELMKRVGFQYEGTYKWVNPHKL
UniProt Q00987: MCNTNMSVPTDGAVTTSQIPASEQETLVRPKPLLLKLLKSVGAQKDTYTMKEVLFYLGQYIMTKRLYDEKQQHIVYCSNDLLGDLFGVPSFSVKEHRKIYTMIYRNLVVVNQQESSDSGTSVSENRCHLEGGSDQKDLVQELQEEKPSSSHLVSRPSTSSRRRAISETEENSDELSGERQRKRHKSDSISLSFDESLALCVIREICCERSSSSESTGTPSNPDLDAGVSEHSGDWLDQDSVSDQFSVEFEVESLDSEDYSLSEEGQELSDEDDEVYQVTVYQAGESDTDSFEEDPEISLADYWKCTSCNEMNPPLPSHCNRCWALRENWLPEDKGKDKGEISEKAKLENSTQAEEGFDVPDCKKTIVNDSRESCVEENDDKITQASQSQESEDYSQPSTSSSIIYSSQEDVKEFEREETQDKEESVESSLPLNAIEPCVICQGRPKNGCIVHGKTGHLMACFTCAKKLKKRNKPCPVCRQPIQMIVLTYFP

Legend:
[1] = target: GST-PAK4 fusion protein (p21-activated kinase 4) (UniProt O96013); assay: pull-down; GST or GST-PAK4 fusion proteins incubated with Flag-tagged protein translated in vitro; bound proteins detected by western blotting; only the target purified
[2] = target: p21-activated kinase 4 (PAK4), endogenous in HCT-116 p53+/+ cells (human (endogenous in HCT-116)) (UniProt O96013); assay: co-IP; HCT-116 p53+/+ lysate (2 mg total protein) immunoprecipitated with specific antibody (G6PD or PAK4) or IgG control, protein A agarose beads, overnight at 4 °C, western blotting; for p53 the cells were treated with 5 nM DOX for 12 h
[3] = target: glucose-6-phosphate dehydrogenase (G6PD), endogenous in HCT-116 p53+/+ cells (human (endogenous in HCT-116)) (UniProt P11413); assay: as above

Question: Which binding [1] does the source give for “Flag-p53, translated in vitro (from UniProt P04637 1-393)” here?
Answer: binds

Question: With “murine double minute 2 (Mdm2), endogenous in HCT-116 p53+/+ cells (from UniProt Q00987 1-491) (enzyme)” as the substance, how does the binding [2] read?
Answer: binds

Question: With “p53, endogenous in HCT-116 p53+/+ cells (from UniProt P04637 1-393)” as the substance, how does the binding [2] read?
Answer: binds

Question: “p21-activated kinase 4 (PAK4), endogenous in HCT-116 p53+/+ cells (from UniProt O96013 1-591) (enzyme)” was tested. Which binding [3] did it give?
Answer: binds

Question: Which binding [1] does the source give for “Flag-G6PD (glucose-6-phosphate dehydrogenase), translated in vitro (from UniProt P11413 1-515) (enzyme)” here?
Answer: binds
